Taken from: PubChem BioAssay AID652272 (Drosophila RNAi Screening Center, 2013)
The screen tested about 21,000 reagents; this is an unselected part of those that have a named target and a result. Over the whole deposit, 503 (2.4%) got an active call. 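Raw plate light values, not normalised; calls rest on replicate z-scores that were not deposited; hits include reporter decreases as well as increases.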 Entries without a mark were called inactive. A plus sign joins genes that one reagent is predicted to hit. Not given: the amount of reagent, the time to read-out.

Purpose: 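Finding fly genes that regulate Hedgehog signal transduction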 (primary screen)
Cell system: Drosophila clone 8 (Cl8) cells
Reagent: long dsRNA against Drosophila genes
Read-out: 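Plate reader light from a firefly reporter under a ptc promoter fragment that responds to Hedgehog, with Renilla light as transfection reference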
Direction: firefly Hh reporter signal: higher = more ptc reporter light; Renilla reference signal: higher = more Renilla control light
Rule for the call: 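Called a hit if the two-replicate mean z-score lies below -2 or above +3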
Meaning of the calls: active = hit: reporter lowered or raised; inactive = not a hit

firefly Hh reporter signal, replicate 1 | firefly Hh reporter signal, replicate 2 | firefly Hh reporter signal, replicate 3 | Renilla reference signal, replicate 1 | Renilla reference signal, replicate 2 | Target gene | DRSC id
96738 | 2.59e5 | – | 3416 | 10012 | Frq1 (Frequenin 1) | DRSC19961
95408 | 3.61e5 | – | 1636 | 14557 | CG1998 | DRSC19829
1.06e5 | 37573 | – | 2947 | 2531 | CG14488 | DRSC06460
4.59e5 | 83323 | – | 23080 | 2289 | CG6000 | DRSC15938
80000 | 2.28e5 | – | 3543 | 10396 | ng3 (new glue 3) | DRSC18804
86036 | 1.40e5 | – | 3360 | 3808 | Osi1 (Osiris 1) | DRSC12271
79169 | 2.89e5 | – | 2315 | 11072 | Rala (Ras-like protein A) | DRSC18703
63932 | 47024 | – | 2684 | 1959 | scat (scattered) | DRSC02722
81528 | 80973 | – | 3660 | 3238 | CG9630 | DRSC16527
75083 | 73529 | – | 3623 | 1767 | Galt (Galactose-1-phosphate uridylyltransferase) | DRSC03161
62768 | 1.64e5 | – | 1448 | 7270 | CG7135 | DRSC20026
3.64e5 | 97392 | – | 21059 | 2726 | CG14810 | DRSC17693
88512 | 2.12e5 | – | 2585 | 7522 | CG14810 | DRSC17961
62083 | 44256 | – | 2650 | 1840 | CG11883 | DRSC06094

Next part (2 carried over from the part before).
firefly Hh reporter signal, replicate 1 | firefly Hh reporter signal, replicate 2 | firefly Hh reporter signal, replicate 3 | Renilla reference signal, replicate 1 | Renilla reference signal, replicate 2 | Target gene | DRSC id
88512 | 2.12e5 | – | 2585 | 7522 | CG14810 | DRSC17961
62083 | 44256 | – | 2650 | 1840 | CG11883 | DRSC06094
82659 | 2.10e5 | – | 2621 | 7760 | eas (easily shocked) | DRSC20329
1.26e5 | – | – | 5176 | 3688 | Eig71Ej | DRSC11157
78384 | 86940 | – | 3078 | 2442 | slx1 (nuclease slx1) | DRSC12290
5.50e5 | 1.97e5 | – | 26211 | 3623 | CG11334 | DRSC14066
92199 | 2.42e5 | – | 1746 | 8789 | CG11334 | DRSC14302
1.28e5 | 3.94e5 | 1.18e5 | 6087 | 25660 | Psf1 (Partner of Sld Five 1) | DRSC08638
1.01e5 | 66163 | – | 3672 | 2496 | ems (empty spiracles) | DRSC16941
13498 | 36924 | – | 279 | 1360 | His3:CG33818 + His3:CG33857 + His3:CG33806 + 20 more | DRSC21267
1.07e5 | 47250 | – | 4104 | 2029 | PPO3 (Prophenoloxidase 3) | DRSC04325
27507 (active) | 28372 | – | 1238 | 3818 | Rpn8 (Regulatory particle non-ATPase 8) | DRSC04624
1.03e5 | 64508 | – | 2592 | 2308 | Sap47 (Synapse-associated protein 47kD) | DRSC16850
61920 | 50354 | – | 2183 | 1940 | Prp38 (pre-mRNA processing factor 38) | DRSC07060
71329 | 48915 | – | 2004 | 4235 | babo (baboon) | DRSC07581
62536 | 45261 | – | 2465 | 3346 | LysS (Lysozyme S) | DRSC08677
1.89e5 | 1.02e5 | – | 4738 | 3600 | CG3191 | DRSC18530
1.37e5 | 1.60e5 | – | 3443 | 3441 | TwdlM (TweedleM) | DRSC15810
88018 | 56304 | – | 3802 | 2336 | CG12744 | DRSC06164
5.69e5 | 1.43e5 | – | 31275 | 4185 | CG13606 | DRSC14609
1.06e5 | 43737 | – | 3098 | 2789 | swi2 | DRSC06457
5.16e5 | 1.89e5 | – | 28106 | 3746 | CG3526 | DRSC17240
97107 | 1.94e5 | – | 3481 | 6778 | CG3526 | DRSC18636
1.50e5 | 57724 | – | 3860 | 4427 | CG14931 | DRSC02413
1.18e5 | 3.09e5 | – | 3153 | 13504 | CG34327 | DRSC19517
62173 | 46157 | – | 1573 | 3794 | Fatp3 (Fatty acid transport protein 3) | DRSC04366
97542 | 93381 | – | 3588 | 3475 | CG10252 | DRSC14221
